# Measurements taken from PubChem BioAssay AID2685 (National Center for Advancing Translational Sciences (NCATS), 2010).
# Among all 320,000 compounds or so, about 2,100 (0.66%) were called active. This list was built around the results that the source calls inconclusive (neither active nor inactive); the mix of calls is not that of the screen. The call rests on the fitted dose curve; in most records, active means well fitted inhibition curve with a large enough effect in the signal ratio, with a control signal flat (not every such curve was filed as active); inconclusive means small, poorly fitted or top-dose-only effect, or effect the other way, or a change in a side signal; inactive means flat fitted curve, though single readings scatter; the % refers to the signal ratio. Potencies of inconclusive entries are doubtful fits and often do not repeat.
# Assay: qHTS Assay for Lipid Storage Modulators in Drosophila S3 Cells
# Conditions: BODIPY lipid droplet fluorescence, 18-24 h, cells fed with added oleic acid; lipid storage change, negative = inhibition: at 46.1 µM (top of the series) unless noted
# Outline: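 Drosophila S3 cells got compounds at several concentrations plus oleic acid (400 uM solution). Laser-scanning cytometry with 488 nm excitation read lipid droplets at 500-530 nm and cells at 575-640 nm. Percent activity was relative to 20 uM Triacsin C.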
# On the % scale 0 is the no-effect control and ±100 the full control effect; potency means the concentration at half of the fitted maximal effect.
SMILES,Potency,"lipid storage change, negative = inhibition",outcome
CCN(C(=O)C1=COCCO1)c1nc2c(C)cccc2s1,"inconclusive: 10.3 µM [activator, partial curve]",–,–
O=C(NCc1ccco1)c1ccc2ccccc2n1,–,inconclusive: 11.9%,–
O=C(c1ccc(COc2ccccc2[N+](=O)[O-])o1)N1CCCCCC1,–,inconclusive: 20.6%,–
COc1ccc(S(=O)(=O)N(C)C)cc1NC(=O)c1ccc2c(c1)NC(=O)C(C)S2 (stereo not given),–,inconclusive: 6%,–
Cc1cc2occ(CC(=O)NC3=NCCS3)c2cc1C(C)C,–,inconclusive: 117%,–
Cc1nc2ccccc2c2c1C(=O)N(c1cccc(C(=O)O)c1)C2=O,–,inconclusive: 10.7%,–
CC(=O)N/C(=C/c1ccccc1)C(=O)NCCO,–,inactive: -18.3%,–
CC(C)(C)NC(=O)Cc1ccc(Cl)c(Cl)c1,–,inconclusive: 19.7%,–
CCOC(=O)N1CCN(C(=O)CCN2C(=O)/C(=C\c3ccccc3OC)SC2=S)CC1,"inconclusive: 0.0052 µM [activator, full curve, poor fit]",–,–
Cc1csc(NC(=O)c2sc3nc(-c4cccs4)ccc3c2N)n1,–,inconclusive: -99.5%,–
O=C(N/N=C/C1CCCCC1)c1cc(Cl)ccc1O,–,inconclusive: -5.79%,–
COC(=O)[C@@H](NC(=O)Nc1cccc(Br)c1)C(C)C,–,inconclusive: -11.5%,–
CCOC(=O)NC(=O)/C(C#N)=N/Nc1c(F)cccc1F,–,inconclusive: 46.8%,–
Cc1ccccc1OCCCN1C(=O)C(=O)c2cccc(C)c21,"inconclusive: 32.6 µM [falling, single point]",–,–
COc1cccc2c1C(=O)C=C(C)C2=O,"inconclusive: 29.1 µM [cytotoxic, partial curve, poor fit]",–,–
COc1cccc(C(=O)Nc2nnc(-c3ccc(OC)cc3OC)s2)c1,–,inconclusive: -26.4%,–
O=C(O)CCN1C(=O)c2ccc(NC(=O)c3cccs3)cc2C1=O,"inconclusive: 29.1 µM [falling, partial curve, poor fit]",–,–
CCCCCc1cc(=O)oc2c(C(CCN3CCCCC3)c3ccc4c(c3)OCO4)c(OC)cc(OC)c12 (stereo not given),"inconclusive: 29.1 µM [cytotoxic, single point]",–,–
C=CCn1c(SCc2ccc(F)cc2)nc2c1c(=O)[nH]c(=O)n2C,–,inconclusive: 11.3%,–
O=C(O)c1ccc(NC(=O)c2cccc(C(=O)Nc3ccc(C(=O)O)cc3)n2)cc1,–,inconclusive: -5.4%,–
O=C(NCCCN1CCc2ccccc2C1)C1CCN(S(=O)(=O)N2CCCC2)CC1,–,inconclusive: 35.6%,–
CCOc1ccc(C(=O)N2CCCC(c3nc(-c4cccs4)no3)C2)cc1 (stereo not given),–,inconclusive: 25.8%,–
CC1CC(C)CN(c2ccc(C(=O)NCc3ccc4c(c3)OCO4)cc2[N+](=O)[O-])C1 (stereo not given),–,inconclusive: -14.8%,–
Cc1onc(-c2c(Cl)cccc2Cl)c1C(=O)NC(=S)N1CCOCC1,–,inconclusive: -22.7%,–
CCCc1ccc(-c2cc(C(=O)Nc3ccc([N+](=O)[O-])cn3)c3ccccc3n2)cc1,–,inconclusive: 22.1%,–

# Already shown: an excerpt of the list.
SMILES,Potency,"lipid storage change, negative = inhibition",outcome
Cc1ccccc1OCCCN1C(=O)C(=O)c2cccc(C)c21,"inconclusive: 32.6 µM [falling, single point]",–,–
COc1cccc2c1C(=O)C=C(C)C2=O,"inconclusive: 29.1 µM [cytotoxic, partial curve, poor fit]",–,–

# The list goes on.

SMILES,Potency,"lipid storage change, negative = inhibition",outcome
Cc1ccc(S(=O)(=O)N(C)C)cc1NC(=O)CSc1nc2ccccc2c(=O)n1CC1CCCO1 (stereo not given),–,inconclusive: -32.3%,–
COC(=O)C1CCN(C(=O)COC(=O)CSc2ccc(C(N)=O)cc2[N+](=O)[O-])CC1,–,inconclusive: 1.41%,–
CCn1nc(C(=O)Nc2ccc(C)c(C)c2)c(Cl)c1Cl,–,inconclusive: -18.6%,–
CC(=O)OCC(=O)[C@@]1(O)CC[C@H]2[C@@H]3CCC4=CC(=O)C=C[C@]4(C)[C@H]3C(=O)C[C@@]21C,–,inconclusive: -15.4%,–
O=C(Cn1cnc2ccc(Cl)cc2c1=O)NC1CCS(=O)(=O)C1 (stereo not given),–,inconclusive,–
Cc1ccc(CN(CC(=O)NCCc2ccccc2)C(=O)CCCC(=O)Nc2cc(C)on2)cc1,–,inconclusive: 40.5%,–
CCNC(=S)N/N=C/c1ccc(F)cc1,–,inconclusive: 50.8%,–
O=C(Nc1nc(-c2ccccn2)cs1)c1ccc([N+](=O)[O-])o1,"inconclusive: 29.1 µM [falling, single point]",–,–
CC1(C)Cc2nc(NC3CCCCC3)c(C#N)cc2CO1,"inconclusive: 8.2 µM [falling, partial curve]",–,–
COc1ccc(CCN2CC(C(=O)Nc3cc(F)ccc3F)CC2=O)cc1OC (stereo not given),–,inconclusive,–
COc1cc(C)c(NC(=O)C2CCN(S(=O)(=O)c3cccs3)CC2)cc1OC,"inconclusive: 6.51 µM [activator, single point]",–,–
COc1cc(OC)c(C(=O)N/N=C/c2ccoc2)cc1OC,"inconclusive: 29.1 µM [activator, single point]",–,–
NC(=O)CN1CCOCCN(CC(N)=O)CCOCC1,–,inconclusive: -14.8%,–
O=C(NS(=O)(=O)Nc1ccc(Cl)cc1)c1c[nH]c2ccccc12,–,inconclusive: 36% [activator],–
CC/C(C)=N/Nc1ccc(S(=O)(=O)N2CCCC2)cc1[N+](=O)[O-],–,inconclusive: 20.1%,–
O=C(NNc1c(F)c(F)cc(F)c1F)c1ccc(Cl)nc1,"inconclusive: 5.8 µM [activator, full curve]",–,–
COc1cc(C)c(Cl)cc1S(=O)(=O)n1cnc(C)c1,"inconclusive: 29.1 µM [activator, single point]",–,–
CC(=O)n1cc(-c2ccncc2)c2ccccc21,"inconclusive: 8.2 µM [rising, partial curve]",–,–
COc1cc(C(=O)Nc2ccccc2C(=O)NCc2cccnc2)cc(OC)c1OC,–,–,inactive [at 46.1 µM]
COc1cc(/C=N/NC(=O)c2cccc(NC(=O)c3ccccc3C)c2)ccc1O,–,inconclusive: -81.5%,–
CC(C)CCNCC(=O)NC(c1ccccc1)c1ccccc1,–,inconclusive: 73.3%,–
O=C(O)CC1S/C(=N\N=C2CCCCCCC2)N(c2ccccc2)C1=O (stereo not given),"inconclusive: 7.31 µM [falling, single point]",–,–
Cc1ccc(C)c2[nH]c(=O)c(C(c3nnnn3Cc3ccco3)N3CCc4ccccc4C3)cc12 (stereo not given),–,inconclusive: 10.2%,–
CCOc1ccc(S(=O)(=O)N(C)c2ccc(OCC(=O)NCc3cccnc3)cc2)cc1,"inconclusive: 18.4 µM [activator, partial curve]",–,–
O=C(C1=C[C@@H](c2ccc(C(F)(F)F)cc2)C[C@@H](OCCCCO)O1)N1CCN(Cc2ccccc2)CC1,"inconclusive: 29.1 µM [falling, single point]",–,–

SMILES,Potency,"lipid storage change, negative = inhibition",outcome
CC(=O)c1sc(NC(=O)c2cc3c(C)nn(-c4ccccc4)c3s2)nc1C,–,inconclusive: -21.5%,–
COCCNC(=O)C(c1ccc(Cl)cc1)N(C(=O)CCC(=O)Nc1ccccn1)C1CCCC1 (stereo not given),–,inconclusive: 27.8%,–
CC(C(=O)NC(=O)NC1CCCCC1)N1CCN(c2ccc(O)cc2)CC1 (stereo not given),–,inconclusive: -58.2%,–
Cc1ccccc1/C=N/Nc1nc2ccccc2c(=O)n1O,"inconclusive: 9.2 µM [rising, partial curve, poor fit]",–,–
COc1ccc(C)cc1S(=O)(=O)N(CC(=O)NCc1ccco1)c1ccc(C)cc1,–,inconclusive: 9.39%,–
CCOC(=O)c1c(N)nn(C(C)=O)c1-c1ccccc1,"inconclusive: 1.16 µM [activator, single point]",–,–
CC(OC(=O)CNC(=O)c1ccc(Cl)c(Cl)c1)C(=O)N1CCOCC1 (stereo not given),–,inconclusive,–
CCOC(=O)/C=C/C(=O)Nc1ccccc1-c1ccccc1NC(=O)/C=C/C(=O)OCC,–,inconclusive: -66.9%,–
CCOC(=O)CNC(=O)CSc1ncnc2c1cnn2-c1ccc(C)cc1,–,inactive: 11.5%,–
Cc1ccc(N/C=C/C(=O)c2cccs2)cc1,–,inconclusive: -14.5%,–
CCOCCCNC(=O)c1cc(Sc2ccc(C)cc2)nc2ccccc12,–,inconclusive: 12.4%,–
Clc1ccc(-n2c(SCc3nc4ccccc4[nH]3)nnc2-c2ccncc2)cc1,"inconclusive: 0.058 µM [activator, full curve, poor fit]",–,–
COc1cc(/C(C)=N/N2CCN(Cc3ccc(C)cc3)CC2)ccc1O,–,inconclusive: 32.7%,–
COc1cc(NC(=O)c2cc([N+](=O)[O-])ccc2NC(=O)CN2CCN(c3ccccn3)CC2)cc(OC)c1,"inconclusive: 29.1 µM [activator, single point]",–,–
COc1ccc(C2N(c3cc(Cl)ccc3OC)C(=O)C3CCCN32)cc1OC (stereo not given),"inconclusive: 0.184 µM [falling, full curve]",–,–
NNC(=O)COc1ccc(C(F)(F)F)cc1,"inconclusive: 29.1 µM [cytotoxic, single point]",–,–
Cc1cccc(OCC(=O)Nc2cccc(-c3nnc(-c4ccccc4)o3)c2)c1C,"inconclusive: 1.16 µM [activator, full curve, poor fit]",–,–
Cc1ccc(OCC(=O)Nc2cccc(S(=O)(=O)N3CCCCCC3)c2)cc1C,–,inconclusive: 27.6%,–
O=C(c1ccc2ccccc2c1)N1CCN(c2ccc([N+](=O)[O-])c(N3CCOCC3)c2)CC1,–,inconclusive: -5.92%,–
CCCN1/C(=C(/C#N)C2=NS(=O)(=O)c3ccccc32)N(C)c2ccccc21,"inconclusive: 20.6 µM [activator, single point]",–,–
COc1cc(/C=C2/C(=O)NN(c3cccc(C)c3)C2=O)ccc1OC(=O)c1ccco1,–,inconclusive: -28.9%,–
Cc1cc(C)nc(N2CCCC(C(=O)NCCc3cccc(F)c3)C2)n1 (stereo not given),"inconclusive: 2.31 µM [activator, partial curve]",–,–
Cc1ccc2nc(-c3ccccn3)cc(C(=O)NC3CCN(C)CC3)c2c1,active: 25.9 µM,–,–
CCOCCCNC(=O)c1cccs1,active: 6.51 µM,–,–
O=C(Nc1ccccc1-c1nc2ccccc2[nH]c1=O)c1cccs1,active: 9.2 µM,–,–

# Reformatted tab-delimited: entries from further up
SMILES	Potency	lipid storage change, negative = inhibition	outcome
Cc1ccc(S(=O)(=O)N(C)C)cc1NC(=O)CSc1nc2ccccc2c(=O)n1CC1CCCO1 (stereo not given)	–	inconclusive: -32.3%	–
COC(=O)C1CCN(C(=O)COC(=O)CSc2ccc(C(N)=O)cc2[N+](=O)[O-])CC1	–	inconclusive: 1.41%	–
